Library screen at single concentrations

Amino acid sequences for entries named in this document (tags omitted). Residues count along the entry.
UniProt Q4DA54, 1-478: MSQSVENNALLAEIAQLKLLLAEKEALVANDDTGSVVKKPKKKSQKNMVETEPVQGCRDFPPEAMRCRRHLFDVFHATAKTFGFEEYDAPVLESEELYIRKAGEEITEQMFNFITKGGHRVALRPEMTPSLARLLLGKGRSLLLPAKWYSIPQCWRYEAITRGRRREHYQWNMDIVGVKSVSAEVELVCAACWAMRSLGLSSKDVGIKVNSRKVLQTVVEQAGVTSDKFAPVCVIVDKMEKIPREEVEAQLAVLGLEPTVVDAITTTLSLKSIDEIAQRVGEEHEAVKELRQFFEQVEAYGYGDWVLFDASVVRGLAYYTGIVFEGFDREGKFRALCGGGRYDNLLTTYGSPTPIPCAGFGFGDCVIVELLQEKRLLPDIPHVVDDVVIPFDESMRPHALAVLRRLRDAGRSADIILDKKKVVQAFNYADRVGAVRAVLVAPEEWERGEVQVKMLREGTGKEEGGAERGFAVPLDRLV

From ChEMBL document CHEMBL3988442, “University of Dundee, Small-Polar-MMV Screening Library” (2021).

Values are the deposited “Percent Effect”, in %. How 0% and 100% were set is not recorded. Most values in the screen are low, and negative values occur. The compounds are a random part of those screened.

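Histidine-tRNA ligase, Trypanosoma cruzi CL Brener (UniProt Q4DA54). Enzyme assay of histidyl-tRNA synthetase; the read-out is not stated. Tested at 30 µM. Higher reads as stronger inhibition (inferred: compounds with an IC50 in retests scored well above the rest). Size under these conditions: about 69,000 compounds, about 31 of them at 50% or above in at least one test.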

CN(CC1CCCN1C)c1nccc(C2CCCC2)n1 (stereo unspecified) gave 16.16%. With CCn1c(C)cc(C(=O)N2CCCC(n3ccnc3C)C2)c1C (stereo unspecified) the screen gave 5%. With Cc1noc([C@@H]2C[C@H]3CN(C(=O)C4CCN(C)CC4)C[C@H]3O2)n1 the screen gave -2.956%. CCC(C)NC(=O)Cn1ccc2c(C)nn(CC)c2c1=O (stereo unspecified) read 8.543%. CC(CS(C)(=O)=O)NCc1cc(Cl)ccc1F (stereo unspecified) gave 7.303%.

CNC(=O)[C@@H]1C[C@@H](N)CN1C(=O)CCSCc1ccc(F)cc1 read 6.061%. CC(C)Nc1ncccc1C(=O)NCc1ncc[nH]1 gave 4.372%. CC(C)NC(=O)N1CCC2(CCC(=O)N2CCN2CCCC2)CC1 gave 3.883%. CO[C@@H]1CC[C@H]2[C@H]1OCCN2Cc1ccccn1 gave 4%. CNCCNc1nccc(-c2cn(C)nc2C)n1 gave 1.02%.

Cc1nc(C(=O)N2CCCC2c2noc(C)n2)c[nH]1 (stereo unspecified) read 7.91%. CC(C)NC(=O)c1ccc2c(c1)nc1n2CCN(c2ccccc2)C1 read -4.918%. Cc1cccc(Cn2cc(Br)c(NS(C)(=O)=O)n2)c1 read 0.8696%. With CCN(Cc1cnn(C)c1)C(=O)c1ccccc1O the screen gave 1.724%. With Cn1nccc1C1CCN(Cc2cnn(-c3ccccc3)n2)CC1 the screen gave 16.07%.

CCOc1ccc(CN(CCOC)C(=O)c2ccncc2Cl)cc1 gave 2.174%. COCCC1(CNC(=O)NCC2CCCS2)CCCC1 (stereo unspecified) gave 3.665%. With COc1ccc(OC)c(-c2cc(C(=O)NCC3(CO)CC3)n(C)n2)c1 the screen gave 0.5291%. Result for Cc1cccc(NC(=O)N2Cc3c(CN(C)C)nn(C)c3C2)c1 was 9.091%. O=S1(=O)c2cccnc2OC(Cc2ccccc2)CN1CC1CC1 (stereo unspecified) read 6.936%.

Result for Cc1cccc(CN2CCN(c3nc(CO)cs3)CC2)c1 was 21.18%. With NC(=O)C1CCCN(C(=O)c2ccc(-n3ccnc3)cc2)C1 (stereo unspecified) the screen gave 3.012%. With CN1CCC2(CC1)CN(C(=O)c1cccnc1)Cc1ccccc12 the screen gave 2.521%. With Cc1nc(NCCc2ccccc2)cc(C(=O)N2CCCCC2)n1 the screen gave 3.509%. CCC[C@H]1CN(C(=O)CCn2ccccc2=O)C[C@@H]1NS(C)(=O)=O gave 4.972%.

For O=C(CCC1CCCCC1)NCc1nnc2ccccn12 the result was 4.459%. Cc1ccnc(OCC(=O)N2CCN(c3ncccn3)CC2)n1 gave -1.02%. Cc1occc(=O)c1OCC(=O)N1CCN(c2cccc(Cl)c2)CC1 gave -31.71%. Result for O=C1NC2(CCNCC2)CC1c1ccccc1 (stereo unspecified) was 1.02%. For Cc1cc(C[C@@H]2COC[C@H]2NCc2ccc(Cl)c(Cl)c2)on1 the result was 4.494%.

Result for O=C(C1CCCCC1)N1CCCC2(CCN(c3cnccn3)CC2)C1 was 16.5%. O=C(Nc1ccccn1)C1CCN(Cc2cccc3c2OCCO3)CC1 gave 6.931%. With CC(C)c1nn(C)c(N(C)C)c1CNCC(O)c1ccccc1F (stereo unspecified) the screen gave 3.053%. Result for Cc1cc(C(=O)N2CC[C@@H]3CO[C@@H](CN4CCCC4)[C@@H]3C2)no1 was 3.448%. O=S(=O)(CCCN1CCCCC1Cn1cncn1)c1ccccc1 (stereo unspecified) read 5.983%.

Result for COc1ccnc(N2CCN(C(=O)c3csnn3)CC2)n1 was -2.326%. With COCCN1CCCC(O)(CN2CCN(c3ncccc3C)CC2)C1=O (stereo unspecified) the screen gave 1.667%. With COC(=O)NC1(C(=O)Nc2ccc(-c3cc[nH]n3)cc2)CCCC1 the screen gave 4.39%. Cc1nc(C)n(CC2CCCN(c3ccc(C#N)cn3)C2)n1 (stereo unspecified) read 7.514%. O=C(c1ccco1)N1C[C@H]2CCCN(CC3CC3)[C@H]2C1 gave 4.132%.

CCC(NC(=O)C1CCN(S(C)(=O)=O)CC1)c1ccc(OC)c(OC)c1 (stereo unspecified) gave 3.347%. With CCc1cn[nH]c1C1CCCN(C(=O)c2cnc(NC(C)C)nc2)C1 (stereo unspecified) the screen gave 2.186%. Cc1ccc(NC(=O)NC(C)(C)c2noc(C)n2)cc1 read -0.9852%. CN(C)S(=O)(=O)N1CC[C@]2(C[C@H](Oc3cccnc3)CO2)C1 gave 4.918%. Result for O=C1NCCCCC1Sc1n[nH]c(=O)n1C1CC1 (stereo unspecified) was 9.852%.

Cc1ccc2nc(CN(Cc3ccc(C#N)cc3)C(C)C)cc(=O)n2c1 gave 4.762%. Cc1cc2c(=O)n3c(nc2s1)CCN(Cc1cncn1C)CC3 gave 1.064%. With Cc1[nH]c(-c2ccccc2)nc1C(=O)N1CCc2[nH]cnc2C1C(=O)O (stereo unspecified) the screen gave 4.469%. Result for Cc1cc(NC(=O)CN2CCCC2c2c(C)nn(C)c2Cl)on1 (stereo unspecified) was 9.357%. For Cc1nocc1C(=O)N1CCOC2(COCCN(C(C)C)C2)C1 (stereo unspecified) the result was -4.42%.

With O=C(CNC1CCc2ncnn2C1)NCCc1cccs1 (stereo unspecified) the screen gave 4.433%. NC(=O)C(NC(=O)COC1CCCC1)c1ccccc1 (stereo unspecified) read 12.94%. For Cc1cnn(CC2CCCCN2CCCS(N)(=O)=O)c1 (stereo unspecified) the result was 4.906%. Cc1nccn1Cc1nnc(C2CCCN(Cc3cccnc3)C2)n1C (stereo unspecified) read 4.132%. With Cc1occc1C(=O)Nc1cc(N2CCNC2=O)ccc1Cl the screen gave 3.743%.

Repeated from the top, 6 entries:

SMILES,Percent Effect
CN(CC1CCCN1C)c1nccc(C2CCCC2)n1 (stereo unspecified),16.16
CCn1c(C)cc(C(=O)N2CCCC(n3ccnc3C)C2)c1C (stereo unspecified),5
Cc1noc([C@@H]2C[C@H]3CN(C(=O)C4CCN(C)CC4)C[C@H]3O2)n1,-2.956
CCC(C)NC(=O)Cn1ccc2c(C)nn(CC)c2c1=O (stereo unspecified),8.543
CC(CS(C)(=O)=O)NCc1cc(Cl)ccc1F (stereo unspecified),7.303
CNC(=O)[C@@H]1C[C@@H](N)CN1C(=O)CCSCc1ccc(F)cc1,6.061